Experimental data reported in publication PMC4825987.
No constants are given. Whether binding was seen depends on the method and setting. For part of these data: In cells and extracts the contact can be indirect. Some entries that bind do so weakly or less than the wild type. Where a sequence is shown, tags or fusion partners need not be part of it.

Protein sequences, listed by entry. Tags and fused reporters are not part of them.
UniProt P33993: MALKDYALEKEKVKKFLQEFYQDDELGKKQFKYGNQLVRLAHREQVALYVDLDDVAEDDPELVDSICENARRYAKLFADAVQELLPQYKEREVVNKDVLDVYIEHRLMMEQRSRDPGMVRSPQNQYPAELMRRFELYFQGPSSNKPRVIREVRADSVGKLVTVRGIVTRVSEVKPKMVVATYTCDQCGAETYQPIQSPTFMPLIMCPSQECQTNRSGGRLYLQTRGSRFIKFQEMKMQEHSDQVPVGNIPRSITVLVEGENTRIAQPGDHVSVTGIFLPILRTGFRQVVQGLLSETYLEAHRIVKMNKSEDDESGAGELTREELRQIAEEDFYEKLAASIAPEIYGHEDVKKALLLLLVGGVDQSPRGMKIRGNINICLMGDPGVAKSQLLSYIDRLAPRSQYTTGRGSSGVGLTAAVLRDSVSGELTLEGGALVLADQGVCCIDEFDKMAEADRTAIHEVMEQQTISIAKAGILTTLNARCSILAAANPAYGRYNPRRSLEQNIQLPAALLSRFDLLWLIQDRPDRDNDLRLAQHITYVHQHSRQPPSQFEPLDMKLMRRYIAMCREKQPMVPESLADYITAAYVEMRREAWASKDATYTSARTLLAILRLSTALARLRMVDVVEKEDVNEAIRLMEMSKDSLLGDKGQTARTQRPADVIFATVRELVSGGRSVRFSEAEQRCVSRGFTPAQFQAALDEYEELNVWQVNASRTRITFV
UniProt P49736: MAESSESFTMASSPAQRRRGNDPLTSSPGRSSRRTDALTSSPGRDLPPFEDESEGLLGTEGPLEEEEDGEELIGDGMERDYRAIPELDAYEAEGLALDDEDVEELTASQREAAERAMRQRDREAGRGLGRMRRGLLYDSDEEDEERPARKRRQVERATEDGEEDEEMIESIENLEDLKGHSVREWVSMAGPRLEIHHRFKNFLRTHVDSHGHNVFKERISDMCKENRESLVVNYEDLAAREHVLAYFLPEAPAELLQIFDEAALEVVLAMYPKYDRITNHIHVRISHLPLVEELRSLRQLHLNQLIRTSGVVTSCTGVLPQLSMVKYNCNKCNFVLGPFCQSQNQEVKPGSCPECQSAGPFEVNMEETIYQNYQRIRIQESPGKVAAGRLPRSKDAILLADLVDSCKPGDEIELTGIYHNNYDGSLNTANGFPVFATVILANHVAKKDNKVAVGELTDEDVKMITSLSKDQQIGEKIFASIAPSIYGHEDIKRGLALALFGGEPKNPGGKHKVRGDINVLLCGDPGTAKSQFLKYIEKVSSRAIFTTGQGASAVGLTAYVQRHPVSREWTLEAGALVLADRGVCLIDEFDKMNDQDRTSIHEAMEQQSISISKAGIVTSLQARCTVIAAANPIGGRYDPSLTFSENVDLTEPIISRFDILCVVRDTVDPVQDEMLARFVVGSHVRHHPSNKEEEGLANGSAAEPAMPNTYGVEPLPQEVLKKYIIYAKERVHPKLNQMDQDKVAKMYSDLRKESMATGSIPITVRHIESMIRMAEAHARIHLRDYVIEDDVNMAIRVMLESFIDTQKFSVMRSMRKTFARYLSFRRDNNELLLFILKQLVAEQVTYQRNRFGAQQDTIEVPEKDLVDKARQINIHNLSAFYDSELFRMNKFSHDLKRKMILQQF

T1: hIPI3 (WDR18, WD repeat domain 18), yeast two-hybrid fusion (human) (UniProt Q9BV38)
T1 sequence: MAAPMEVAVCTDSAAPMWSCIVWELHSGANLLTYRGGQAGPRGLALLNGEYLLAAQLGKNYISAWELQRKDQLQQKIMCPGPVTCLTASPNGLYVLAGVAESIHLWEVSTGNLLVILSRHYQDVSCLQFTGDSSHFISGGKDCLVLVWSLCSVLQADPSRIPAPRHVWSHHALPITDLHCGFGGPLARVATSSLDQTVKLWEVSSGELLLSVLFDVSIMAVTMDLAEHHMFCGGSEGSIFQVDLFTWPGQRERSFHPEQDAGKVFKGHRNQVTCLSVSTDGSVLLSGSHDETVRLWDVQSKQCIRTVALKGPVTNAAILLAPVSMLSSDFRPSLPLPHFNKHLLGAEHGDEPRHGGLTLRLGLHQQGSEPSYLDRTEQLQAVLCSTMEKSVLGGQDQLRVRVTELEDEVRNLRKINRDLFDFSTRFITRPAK


Target: hMCM7, endogenous (human (endogenous in HeLa)) (UniProt P33993)
Experiment: co-IP; HA-hIPI3 stable HeLa cells arrested at the G1/S boundary by Mimosine; whole-cell extracts precipitated with anti-HA antibody or control mouse IgG; reverse co-IP with anti-hMCM7 antibody; immunoblot

binding | Molecule
binds | HA-hIPI3 (protein, UniProt Q9BV38 1-432) MAAPMEVAVCTDSAAPMWSCIVWELHSGANLLTYRGGQAGPRGLALLNGEYLLAAQLGKNYISAWELQRKDQLQQKIMCPGPVTCLTASPNGLYVLAGVAESIHLWEVSTGNLLVILSRHYQDVSCLQFTGDSSHFISGGKDCLVLVWSLCSVLQADPSRIPAPRHVWSHHALPITDLHCGFGGPLARVATSSLDQTVKLWEVSSGELLLSVLFDVSIMAVTMDLAEHHMFCGGSEGSIFQVDLFTWPGQRERSFHPEQDAGKVFKGHRNQVTCLSVSTDGSVLLSGSHDETVRLWDVQSKQCIRTVALKGPVTNAAILLAPVSMLSSDFRPSLPLPHFNKHLLGAEHGDEPRHGGLTLRLGLHQQGSEPSYLDRTEQLQAVLCSTMEKSVLGGQDQLRVRVTELEDEVRNLRKINRDLFDFSTRFITRPAK

Target: T1, hIPI3 (WDR18, WD repeat domain 18), yeast two-hybrid fusion (human)
Experiment: two-hybrid; Gal4 AD (pGADT7) and BD (pGBKT7) fusions co-transformed into AH109 yeast; growth on SCM-Trp-Leu-His (SCM-3) plates against SCM-Trp-Leu (SCM-2)

Molecule | binding
hMCM2, yeast two-hybrid fusion (from UniProt P49736 1-904) | binds
hORC2, yeast two-hybrid fusion (protein, UniProt Q13416 1-577) MSKPELKEDKMLEVHFVGDDDVLNHILDREGGAKLKKERAQLLVNPKKIIKKPEYDLEEDDQEVLKDQNYVEIMGRDVQESLKNGSATGGGNKVYSFQNRKHSEKMAKLASELAKTPQKSVSFSLKNDPEITINVPQSSKGHSASDKVQPKNNDKSEFLSTAPRSLRKRLIVPRSHSDSESEYSASNSEDDEGVAQEHEEDTNAVIFSQKIQAQNRVVSAPVGKETPSKRMKRDKTSDLVEEYFEAHSSSKVLTSDRTLQKLKRAKLDQQTLRNLLSKVSPSFSAELKQLNQQYEKLFHKWMLQLHLGFNIVLYGLGSKRDLLERFRTTMLQDSIHVVINGFFPGISVKSVLNSITEEVLDHMGTFRSILDQLDWIVNKFKEDSSLELFLLIHNLDSQMLRGEKSQQIIGQLSSLHNIYLIASIDHLNAPLMWDHAKQSLFNWLWYETTTYSPYTEETSYENSLLVKQSGSLPLSSLTHVLRSLTPNARGIFRLLIKYQLDNQDNPSYIGLSFQDFYQQCREAFLVNSDLTLRAQLTEFRDHKLIRTKKGTDGVEYLLIPVDNGTLTDFLEKEEEEA | binds
hORC1, yeast two-hybrid fusion (protein, UniProt Q13415 1-861) MAHYPTRLKTRKTYSWVGRPLLDRKLHYQTYREMCVKTEGCSTEIHIQIGQFVLIEGDDDENPYVAKLLELFEDDSDPPPKKRARVQWFVRFCEVPACKRHLLGRKPGAQEIFWYDYPACDSNINAETIIGLVRVIPLAPKDVVPTNLKNEKTLFVKLSWNEKKFRPLSSELFAELNKPQESAAKCQKPVRAKSKSAESPSWTPAEHVAKRIESRHSASKSRQTPTHPLTPRARKRLELGNLGNPQMSQQTSCASLDSPGRIKRKVAFSEITSPSKRSQPDKLQTLSPALKAPEKTRETGLSYTEDDKKASPEHRIILRTRIAASKTIDIREERTLTPISGGQRSSVVPSVILKPENIKKRDAKEAKAQNEATSTPHRIRRKSSVLTMNRIRQQLRFLGNSKSDQEEKEILPAAEISDSSSDEEEASTPPLPRRAPRTVSRNLRSSLKSSLHTLTKVPKKSLKPRTPRCAAPQIRSRSLAAQEPASVLEEARLRLHVSAVPESLPCREQEFQDIYNFVESKLLDHTGGCMYISGVPGTGKTATVHEVIRCLQQAAQANDVPPFQYIEVNGMKLTEPHQVYVQILQKLTGQKATANHAAELLAKQFCTRGSPQETTVLLVDELDLLWTHKQDIMYNLFDWPTHKEARLVVLAIANTMDLPERIMMNRVSSRLGLTRMCFQPYTYSQLQQILRSRLKHLKAFEDDAIQLVARKVAALSGDARRCLDICRRATEICEFSQQKPDSPGLVTIAHSMEAVDEMFSSSYITAIKNSSVLEQSFLRAILAEFRRSGLEEATFQQIYSQHVALCRMEGLPYPTMSETMAVCSHLGSCRLLLVEPSRNDLLLRVRLNVSQDDVLYALKDE | binds

More lines, now with the values ahead:

binding | Molecule
binds | hMCM3, yeast two-hybrid fusion (protein, UniProt P25205 1-808) MAGTVVLDDVELREAQRDYLDFLDDEEDQGIYQSKVRELISDNQYRLIVNVNDLRRKNEKRANRLLNNAFEELVAFQRALKDFVASIDATYAKQYEEFYVGLEGSFGSKHVSPRTLTSCFLSCVVCVEGIVTKCSLVRPKVVRSVHYCPATKKTIERRYSDLTTLVAFPSSSVYPTKDEENNPLETEYGLSVYKDHQTITIQEMPEKAPAGQLPRSVDVILDDDLVDKAKPGDRVQVVGTYRCLPGKKGGYTSGTFRTVLIACNVKQMSKDAQPSFSAEDIAKIKKFSKTRSKDIFDQLAKSLAPSIHGHDYVKKAILCLLLGGVERDLENGSHIRGDINILLIGDPSVAKSQLLRYVLCTAPRAIPTTGRGSSGVGLTAAVTTDQETGERRLEAGAMVLADRGVVCIDEFDKMSDMDRTAIHEVMEQGRVTIAKAGIHARLNARCSVLAAANPVYGRYDQYKTPMENIGLQDSLLSRFDLLFIMLDQMDPEQDREISDHVLRMHRYRAPGEQDGDAMPLGSAVDILATDDPNFSQEDQQDTQIYEKHDNLLHGTKKKKEKMVSAAFMKKYIHVAKIIKPVLTQESATYIAEEYSRLRSQDSMSSDTARTSPVTARTLETLIRLATAHAKARMSKTVDLQDAEEAVELVQYAYFKKVLEKEKKRKKRSEDESETEDEEEKSQEDQEQKRKRRKTRQPDAKDGDSYDPYDFSDTEEEMPQVHTPKTADSQETKESQKVELSESRLKAFKVALLDVFREAHAQSIGMNRLTESINRDSEEPFSSVEIQAALSKMQDDNQVMVSEGIIFLI
binds | hORC3, yeast two-hybrid fusion (protein, UniProt Q9UBD5 1-711) MATSSMSKGCFVFKPNSKKRKISLPIEDYFNKGKNEPEDSKLRFETYQLIWQQMKSENERLQEELNKNLFDNLIEFLQKSHSGFQKNSRDLGGQIKLREIPTAALVLGVNVTDHDLTFGSLTEALQNNVTPYVVSLQAKDCPDMKHFLQKLISQLMDCCVDIKSKEEESVHVTQRKTHYSMDSLSSWYMTVTQKTDPKMLSKKRTTSSQWQSPPVVVILKDMESFATKVLQDFIIISSQHLHEFPLILIFGIATSPIIIHRLLPHAVSSLLCIELFQSLSCKEHLTTVLDKLLLTTQFPFKINEKVLQVLTNIFLYHDFSVQNFIKGLQLSLLEHFYSQPLSVLCCNLPEAKRRINFLSNNQCENIRRLPSFRRYVEKQASEKQVALLTNERYLKEETQLLLENLHVYHMNYFLVLRCLHKFTSSLPKYPLGRQIRELYCTCLEKNIWDSEEYASVLQLLRMLAKDELMTILEKCFKVFKSYCENHLGSTAKRIEEFLAQFQSLDETKEEEDASGSQPKGLQKTDLYHLQKSLLEMKELRRSKKQTKFEVLRENVVNFIDCLVREYLLPPETQPLHEVVYFSAAHALREHLNAAPRIALHTALNNPYYYLKNEALKSEEGCIPNIAPDICIAYKLHLECSRLINLVDWSEAFATVVTAAEKMDANSATSEEMNEIIHARFIRAVSELELLGFIKPTKQKTDHVARLTWGGC
